The data set can be described thus: general procedure: Fmoc solid-phase peptide synthesis; Rink resin; diisopropylcarbodiimide / diisopropylethylamine; DCC, HOBt. The note with it: whole synthesis.
Where [1] appears, read: scale 0.065 mmol, triflate salt.
Setting [2] is: on 0.065 mmol resin-bound peptide, scale 0.065 mmol, triflate salt.
The mark [3] stands for this setting: scale 0.025 mmol, triflate salt.

This is an account of results in patent US8557776B2 (Bayer Pharma AG, priority 2006, dated 2013).

With “3-Cyano-4-(trimethylammonium)-benzoyl-Arg-βAla-Gln-Trp-Ala-Val-Gly-His(3Me)-Sta-Leu-NH2 trifluoracetic acid salt”, under “scale 0.025 mmol, TFA salt”, the isolated mass amounted to 9.0 mg and the isolated yield is reported as 24%.

As to “(5-Trimethylammonium-2-bromo-benzoyl)-Val-βAla-Arg-Gly-NH2-triflate salt”, under setting [1], the isolated mass came out at 27.2 mg and the isolated yield is recorded as 52%.

For the substance “(4-Trimethylammonium-3-cyano-benzenesulfonyl)-Gly-Val-βAla-His(π-Me)-Gly-NH2-triflate salt”, under setting [1], the isolated mass turned out to be 30.5 mg and the isolated yield was 55%.

For the substance “(4-Trimethylammonium-3-cyano-benzoyl)-Val-βAla-Phe-Gly-NH2 triflate salt”, the isolated yield under setting [2] stood at 46%. In addition, the isolated mass under setting [1] stood at 22.2 mg.

With “(4-Trimethylammonium-3-cyano-benzoyl)-Val-βAla-Lys-Gly-NH2-triflate salt”, under setting [2], the isolated yield is 52%. For the same substance, the isolated mass under setting [1] was found to be 24.5 mg.

Consider “(4-Trimethylammonium-3-fluoro-benzoyl)-Gly-Thr-Tyr-Ala-NH2-triflate salt”, for which, under setting [1], the isolated mass was 20.0 mg and the isolated yield turned out to be 41.6%.

As to “(5-Trimethylammonium-2-trifluormethyl-benzoyl)-Val-βAla-Trp-Gly-NH2-triflate salt”, under setting [1], the isolated mass is on record as 13.9 mg and the isolated yield stood at 26%.

For “(4-Trimethylammonium-2-bromo-benzoyl)-Gly-Phe-Ile-Gly-NH2-triflate salt”, under setting [1], the isolated mass is 12.5 mg and the isolated yield was determined as 24.6%.

As to “(4-Trimethylammonium-3-cyano-benzoyl)-Val-βAla-His(π-Me)-Leu-NH2 triflate salt”, under setting [2], the isolated yield was found to be 57%. Moreover, under setting [1], the isolated mass was determined as 29.8 mg.

For “(4-Trimethylammonium-3-nitro-benzoyl)-Thr-Val-Phe-Leu-NH2-triflate salt”, under setting [1], the isolated mass is 30.1 mg and the isolated yield is reported as 56%.

For the substance “(4-Trimethylammonium-2.3-difluoro-benzoyl)-Val-Arg-Ser-Gly-NH2-triflate salt”, under setting [1], the isolated mass is on record as 19.6 mg and the isolated yield amounted to 39.5%.

With “(4-Trimethylammonium-2-fluoro-benzoyl)-Lys(N-dimethyl)-Ala-Gly-Leu-NH2-triflate salt”, under setting [1], the isolated mass came to 24.7 mg and the isolated yield was 45.0%.

Turning to “3-Cyano-4-(trimethylammonium)-benzoyl-Arg-Ava-Gln-Trp-Ala-Val-Gly-His(πMe)-Sta-Leu-NH2 trifluoracetic acid salt”, for the setting “scale 0.025 mmol, TFA salt”, the isolated mass was found to be 10.8 mg and the isolated yield is 28%.

In the case of “(4-Trimethylammonium-2-nitro-benzoyl)-Ser-Thr-Val-Gly-NH2-triflate salt”, under setting [1], the isolated mass is 16.3 mg and the isolated yield came out at 35%.

As for “(4-Trimethylammonium-3-cyano-benzoyl)-Ava-His(π-Me)-Sta-Leu-NH2-triflate salt”, under setting [2], the isolated yield was found to be 38%. In addition, the isolated mass under setting [1] came out at 21.6 mg.

“(4-Trimethylammonium-3-cyano-benzoyl)-N-MeGly-His(π-Me)-Sta-Leu-NH2-triflate salt”: under setting [2], the isolated yield is reported as 29%. Further, the isolated mass under setting [1] turned out to be 16.0 mg.

Turning to “(4-Trimethylammonium-3-cyano-benzoyl)-Val-βAla-Met-Gly-NH2-triflate salt”, the isolated yield under setting [2] is listed as 37%. Besides, the isolated mass under setting [1] stood at 17.4 mg.

For the substance “(2-Chloro-5-methanesulfonyl-4-trimethylammonium-benzoyl)-Val-βAla-Phe-Gly-NH2-triflate salt”, under setting [1], the isolated mass was found to be 23.2 mg and the isolated yield came out at 43%.

Regarding “(4-Trimethylammonium-2-cyano-benzoyl)-Arg-Val-Gly-Phe-NH2-triflate salt”, under setting [1], the isolated mass is reported as 20.0 mg and the isolated yield amounted to 38%.

Take “3-Cyano-4-(trimethylammonium)-benzoyl-Ava-Gln-Trp-Ala-Val-Gly-His-(4-amino-5-methyl-heptanoic acid)-Leu-NH2 trifluoracetic acid salt”: where the note is “scale 0.025 mmol, TFA salt”, the isolated mass was found to be 12.2 mg and the isolated yield came to 35%.

Consider “(5-Trimethylammonium-2-chloro-benzoyl)-Val-βAla-Arg-Gly-NH2-triflate salt”, for which, under setting [1], the isolated mass was 15.3 mg and the isolated yield is given as 31%.

As to “(2-Nitro-5-trimethylammonium-benzoyl)-Val-βAla-Phe-Gly-NH2-triflate salt”, under setting [1], the isolated mass amounted to 20.8 mg and the isolated yield stood at 42%.

For the substance “(4-Trimethylammonium-2.6-difluoro-benzoyl)-Gly-Pro-Phe-Val-NH2-triflate salt”, under setting [1], the isolated mass was found to be 9.75 mg and the isolated yield is on record as 19.6%.

For the substance “(4-Trimethylammonium-3-cyano-benzoyl)-Val-βAla-His(Π-Me)-Gly-NH2 triflate salt”, the isolated yield under setting [2] is recorded as 33%. Also, under setting [1], the isolated mass came out at 16.0 mg.

Consider “(4-Trimethylammonium-2-chloro-5-fluoro-benzoyl)-Val-βAla-Phe-Gly-NH2-triflate salt”, for which, under setting [2], the isolated yield was determined as 37%. Also, the isolated mass under setting [1] is given as 18.6 mg.

For “(4-Trimethylammonium-3-cyano-benzoyl)-Val-βAla-Tyr-Gly-NH2 triflate salt”, the isolated yield under setting [2] is given as 36%. Under setting [1], the isolated mass is listed as 17.7 mg.

For the substance “(4-Trimethylammonium-3-cyano-benzoyl)-Val-βAla-Arg-Gly-NH2-triflate salt”, the isolated yield under setting [2] amounted to 47%. Under setting [1], the isolated mass turned out to be 20.3 mg.

As for “(5-Trimethylammonium-2-methanesulfonyl-benzoyl)-Val-βAla-Arg-Gly-NH2-triflate salt”, under setting [1], the isolated yield amounted to 33%.

In the case of “(4-Trimethylammonium-3-cyano-benzoyl)-Arg-Ala-His(π-Me)-Leu-NH2-triflate salt”, under setting [1], the isolated mass is reported as 14.9 mg and the isolated yield stood at 27.0%.

Consider “(4-Trimethylammonium-3-cyano-benzoyl)-Gly-Tyr-βAla-Val-NH2”, for which, under setting [2], the isolated yield came to 40%. The isolated mass under setting [1] came to 19.8 mg.

Consider “3-Trifluormethyl-4-(trimethylammonium)-benzoyl-Arg-Ava-Gln-Trp-Ala-Val-NMeGly-His(3Me)-Sta-Leu-NH2”, for which, under setting [3], the isolated mass was 11.5 mg and the isolated yield is on record as 29%.

For “(4-Trimethylammonium-3-trifluoromethoxy-benzoyl)-Val-βAla-Phe-Gly-NH2-triflate salt”, under setting [1], the isolated mass amounted to 14.6 mg and the isolated yield turned out to be 28%.

On to “(4-Trimethylammonium-3-cyano-benzoyl)-Val-βAla-Trp-Gly-NH2-triflate salt”, for which the isolated yield under setting [2] worked out at 41%. Moreover, the isolated mass under setting [1] came out at 20.8 mg.

“(4-Trimethylammonium-2-chloro-benzoyl)-Trp-Ala-Val-Leu-NH2-triflate salt”: under setting [1], the isolated mass was 16.2 mg and the isolated yield is 30.0%.

“(4-Trimethylammonium-3-methanesulfonyl-benzoyl)-Gly-Phe-Val-Leu-NH2-triflate salt”: under setting [1], the isolated mass came out at 17.7 mg and the isolated yield turned out to be 33%.

As for “3-Cyano-4-(trimethylammonium)-benzoyl-Ava-Gln-Trp-Ala-Val-Gly-His(3Me)-Sta-Leu-NH2 trifluoracetic acid salt”, under “scale 0.025 mmol, TFA salt”, the isolated mass stood at 11.1 mg and the isolated yield is listed as 32%.

As to “(4-Trimethylammonium-3-trifluormethyl-benzoyl)-Val-βAla-His(π-Me)-Gly-NH2-triflate salt”, the isolated yield under setting [2] is 59%. The isolated mass under setting [1] is 24.2 mg.

For “(4-Trimethylammonium-3-trifluormethyl-benzoyl)-Val-βAla-Phe-Gly-NH2-triflate salt”, under setting [1], the isolated mass is reported as 10.9 mg and the isolated yield is listed as 21.5%.

“(5-Trimethylammonium-2-cyano-benzoyl)-Val-βAla-Arg-Gly-NFI2-triflate salt”: the isolated yield under setting [2] is recorded as 38%. The isolated mass under setting [1] was 18.6 mg.
